In PMC5975398:
These are yes or no findings as the source states them, for the method shown. Some results given as binding are weak or reduced against the parent protein; the word gives no strength.

Sequences of proteins named here, by UniProt entry; tags and fusion partners are left off. A change or cut given only in a name is not applied to a line headed by its entry.
UniProt P03372: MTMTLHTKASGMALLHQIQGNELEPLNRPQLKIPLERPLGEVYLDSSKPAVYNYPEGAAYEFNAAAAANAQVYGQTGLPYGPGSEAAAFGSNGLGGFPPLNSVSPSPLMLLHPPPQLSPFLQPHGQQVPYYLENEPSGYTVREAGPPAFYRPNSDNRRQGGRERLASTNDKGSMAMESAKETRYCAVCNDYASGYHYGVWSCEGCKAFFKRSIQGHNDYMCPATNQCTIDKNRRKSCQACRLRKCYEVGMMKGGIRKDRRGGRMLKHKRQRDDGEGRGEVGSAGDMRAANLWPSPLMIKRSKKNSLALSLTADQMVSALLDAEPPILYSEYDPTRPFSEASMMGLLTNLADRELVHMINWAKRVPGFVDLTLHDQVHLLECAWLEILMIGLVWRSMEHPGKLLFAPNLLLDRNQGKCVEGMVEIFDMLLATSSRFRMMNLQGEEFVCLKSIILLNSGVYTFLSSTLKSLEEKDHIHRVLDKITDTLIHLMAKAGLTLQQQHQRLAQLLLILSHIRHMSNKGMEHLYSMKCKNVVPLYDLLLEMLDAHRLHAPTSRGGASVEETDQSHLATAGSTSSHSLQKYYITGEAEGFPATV

Molecular target: Estrogen receptor α (human (endogenous in MCF7 or T47D)) (UniProt P03372)
Experiment: Re-ChIP (sequential chromatin immunoprecipitation); formaldehyde-crosslinked, sonicated chromatin of estrogen-treated cells; first immunoprecipitation with anti-ERα, eluted (1X TE, 2% SDS, 15 mM DTT), second immunoprecipitation with anti-ERRβ; read out by PCR of the half ERE sites of the ERRβ promoter

- binding: binds
B1: Estrogen related receptor β (receptor, UniProt O95718 1-433)
chain: MSSDDRHLGSSCGSFIKTEPSSPSSGIDALSHHSPSGSSDASGGFGLALGTHANGLDSPPMFAGAGLGGTPCRKSYEDCASGIMEDSAIKCEYMLNAIPKRLCLVCGDIASGYHYGVASCEACKAFFKRTIQGNIEYSCPATNECEITKRRRKSCQACRFMKCLKVGMLKEGVRLDRVRGGRQKYKRRLDSESSPYLSLQISPPAKKPLTKIVSYLLVAEPDKLYAMPPPGMPEGDIKALTTLCDLADRELVVIIGWAKHIPGFSSLSLGDQMSLLQSAWMEILILGIVYRSLPYDDKLVYAEDYIMDEEHSRLAGLLELYRAILQLVRRYKKLKVEKEEFVTLKALALANSDSMYIEDLEAVQKLQDLLHEALQDYELSQRHEEPWRTGKLLLTLPLLRQTAAKAVQHFYSVKLQGKVPMHKLFLEMLEAKV
